# From patent publication US20080070267A1, “Modulation Of Neurotransmitter Activity In Neurons” (The Regents of the University of California, priority 2004, published 2008)
# For at least one compound, name, drawing or mass did not settle the structure.
# Columns and labels:
# [1] = system: Ca^2+ spike activity of embryonic spinal cord neurons; assay type: cell-based, Xenopus laevis
# [2] = system: neurotransmitter expression in neural tube neurons; parameters: species or system Xenopus laevis; conditions: in vivo
smiles,measurement,setting,value
COc1ccc(C(=O)O[C@H]2CC[C@@]3(C)[C@@H]4CC[C@H]5[C@]6(O)C[C@H](O)[C@@]7(O)[C@@H](CN8C[C@@H](C)CC[C@H]8[C@@]7(C)O)[C@]6(O)C[C@@]53O[C@]24O)cc1OC [veratridine],spontaneous Ca^2+ spike activity,[1],enhancement
same,ChAT-IR (choline acetyltransferase immunoreactivity),[2],suppressed
same,Glu-IR (glutamate immunoreactivity),[2],suppressed
